Screen size: about 59,000 compounds; about 35 (0.06%) were called active. Inconclusive means that the source gave no clear call. Such entries were picked first, then a sample of the others. Rule as the data show it: active = max dye-equivalent concentration above about 10 nM; inconclusive = between about 1.1 nM and that limit; inactive = weaker than that.
assay: qHTS Assay for Spectroscopic Profiling in Texas Red Spectral Region; conditions: Compound fluorescence, Texas Red channel, 547/618 nm; stronger effect = higher value
Summary of the method: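 Dye-equivalent concentrations come from scaling compound signal (ex 547, em 618 nm) to six Texas Red standard concentrations run on every plate, after 15 min room-temperature incubation in pH 8.0 Tris (100 mM).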

| Structure (SMILES) | max dye-equivalent concentration |
| --- | --- |
| CCCCCCCCCCCCC/C=C\[C@H](O)[C@H](N)CO | inactive |
| CN1/C(=C/C(=O)C2CCC2)Sc2ccccc21 | inconclusive: 1.2 nM |
| Cc1ccc(S(=O)(=O)NC(=O)c2cc(C)n(CCCN3CCOCC3)c2C)cc1 | inconclusive: 1.8 nM |
| O=C(CSc1nnc(-c2ccco2)n1CC1CCCO1)c1ccc(F)cc1 (centres undefined) | inconclusive: 1.1 nM |
| Cc1onc(COc2ccccc2O)c1Br | inconclusive: 2.3 nM |
| O=C(O)CCSC1=NCCN1 | inactive |
| CC(=O)N(Cc1ccccc1)c1ncc2c(n1)c(=O)c(C#N)c1ccccn12 | inconclusive: 1.4 nM |
| O=c1oc2cc(OCc3nn[nH]n3)ccc2c2c1CCCC2 | inconclusive: 1.3 nM |
| CC(C)Oc1c(Cl)cc(CNC(C)(C)CO)cc1Cl | inconclusive: 2 nM |
| CCCN(CCC)C(=O)CSc1nc2n[nH]c(C)c2c(=N)n1-c1ccc(OC)cc1 | inconclusive: 1.3 nM |
| Cc1sc2nc(SCC(=O)c3cccs3)n(Cc3ccco3)c(=O)c2c1C | inactive |
| COCCCn1c(SCC(=O)NC(C)C)nnc1-c1ccccc1 | inconclusive: 1.1 nM |
| CCCCC(=O)N1CCCC(c2nc3c(nnn3Cc3cc(C)ccc3C)c(=O)[nH]2)C1 (centres undefined) | inconclusive: 1.1 nM |
| CCOC(=O)c1sc(N)c(C(=O)OCC)c1COC(=O)C1CC(=O)N(Cc2ccco2)C1 (centres undefined) | inconclusive: 2.2 nM |
| C=CCn1c(NC(=O)c2ccccc2)c(C#N)c2nc3ccccc3nc21 | inconclusive: 1.2 nM |
| CCN(CC)C(=O)Cn1c(=O)n(Cc2ccccc2Cl)c2c1c(=O)n(C)c(=O)n2C | inconclusive: 1.3 nM |
| COc1cc2c(cc1OC)CN(C(=O)CSc1n[nH]c(N)n1)CC2 | inconclusive: 1.2 nM |
| Cc1ccc(C(=O)NCc2ccc3c(c2)OCO3)cc1S(=O)(=O)N1CCCCC1 | inconclusive: 1.1 nM |
| COc1ccc(CNC(=O)C(C)N(Cc2ccco2)C(=O)c2snc(C(N)=O)c2N)cc1 (centres undefined) | inconclusive: 1.9 nM |
| CCn1c(SCC(=O)N2CCN(c3ccccc3F)CC2)nnc1-c1ccoc1C | inconclusive: 1.3 nM |
| Cn1c(=O)c2c(nc(N3CCCCC3)n2CCSc2nc3ccccc3s2)n(C)c1=O | inconclusive: 1.2 nM |
| COCCn1c(=O)c(-c2cc(F)cc(F)c2)nc2cnc(OC)nc21 | inactive |
| Cc1ccc(C(=O)N2CCCCCC2)cc1Br | inconclusive: 1.6 nM |
| Cc1cnc(CNc2ncncc2-c2ccoc2)cn1 | inactive |
| Cn1c(SCc2ccc(Br)cc2)nnc1-c1ccncc1 | inconclusive: 1.4 nM |
| COC(=O)[C@H]1[C@H]2C[C@H]3c4[nH]c5ccccc5c4CCN3C[C@@H]2CC[C@@H]1O | inconclusive: 1.1 nM |
| Cc1[nH]c(=O)[nH]c(=O)c1S(=O)(=O)N1CCCC1 | inconclusive: 1.1 nM |

A portion from further up, for reference:

| Structure (SMILES) | max dye-equivalent concentration |
| --- | --- |
| O=c1oc2cc(OCc3nn[nH]n3)ccc2c2c1CCCC2 | inconclusive: 1.3 nM |
| CC(C)Oc1c(Cl)cc(CNC(C)(C)CO)cc1Cl | inconclusive: 2 nM |
| CCCN(CCC)C(=O)CSc1nc2n[nH]c(C)c2c(=N)n1-c1ccc(OC)cc1 | inconclusive: 1.3 nM |
| Cc1sc2nc(SCC(=O)c3cccs3)n(Cc3ccco3)c(=O)c2c1C | inactive |
| COCCCn1c(SCC(=O)NC(C)C)nnc1-c1ccccc1 | inconclusive: 1.1 nM |
| CCCCC(=O)N1CCCC(c2nc3c(nnn3Cc3cc(C)ccc3C)c(=O)[nH]2)C1 (centres undefined) | inconclusive: 1.1 nM |
| CCOC(=O)c1sc(N)c(C(=O)OCC)c1COC(=O)C1CC(=O)N(Cc2ccco2)C1 (centres undefined) | inconclusive: 2.2 nM |
| C=CCn1c(NC(=O)c2ccccc2)c(C#N)c2nc3ccccc3nc21 | inconclusive: 1.2 nM |
| CCN(CC)C(=O)Cn1c(=O)n(Cc2ccccc2Cl)c2c1c(=O)n(C)c(=O)n2C | inconclusive: 1.3 nM |
| COc1cc2c(cc1OC)CN(C(=O)CSc1n[nH]c(N)n1)CC2 | inconclusive: 1.2 nM |
| Cc1ccc(C(=O)NCc2ccc3c(c2)OCO3)cc1S(=O)(=O)N1CCCCC1 | inconclusive: 1.1 nM |

(further entries)

| Structure (SMILES) | max dye-equivalent concentration |
| --- | --- |
| O=C(CCC(=O)N1CCCC1)Nc1nnc(C(F)(F)F)s1 | inconclusive: 1.1 nM |
| COC(=O)CSc1nsc(SCC(=O)OC)c1C#N | inconclusive: 1.5 nM |
| CCOc1cc(S(=O)(=O)NCc2ccc3c(c2)OCO3)c(C)cc1C | inconclusive: 1.4 nM |
| Cc1ccc(C)n1-n1cnc2sc3c(c2c1=O)CCC3 | inconclusive: 1.5 nM |
| CCC(C)Sc1nc2c(c(=O)[nH]c(=O)n2C)n1CCc1ccccc1 (centres undefined) | inconclusive: 1.8 nM |
| Cc1ccc(-c2nnc3sc(-c4ccncc4)nn23)cc1 | inconclusive: 1.4 nM |
| Cc1ccc(CNC(=O)c2ccccc2NS(C)(=O)=O)cc1 | inconclusive: 1.5 nM |
| Cc1onc(-c2ccccc2Cl)c1C(=O)Nc1sc2c(c1C#N)CCC2 | inconclusive: 1.6 nM |
| C=Cc1c(C)c2cc3[nH]c(cc4nc(cc5nc(cc1[nH]2)C(C)=C5CCC(=O)O)C(CCC(=O)O)=C4C)c(C)c3C=C | active: 10 nM |
| Nc1nc(Cl)nc2c1ncn2[C@@H]1O[C@@H](CO)[C@@H](O)[C@H]1O | inactive |
| Cc1cc(Cl)nc2ccc(Cc3ccc4nc(Cl)cc(C)c4c3)cc12 | inconclusive: 1.4 nM |
| O=C1[C@@H]2C(c3ccccc3Cl)=NO[C@@H]2C(=O)N1Cc1ccccc1 | inconclusive: 2 nM |
| CCOC(=O)N1CCN(Cc2cc(=O)oc3ccc(Cl)cc23)CC1 | inconclusive: 2.2 nM |
| Cc1cc(C)c(NC(=O)CCCN2CCOCC2)c(C)c1 | inconclusive: 2.6 nM |
| COc1ccccc1N1CCN(C(CNC(=O)c2ccc3c(c2)OCO3)c2cccnc2)CC1 (centres undefined) | inconclusive: 1.1 nM |
| COc1ccc(S(=O)(=O)NCC(=O)N(CC(=O)NCC2CCCO2)c2ccccc2C)cc1 (centres undefined) | inconclusive: 1.3 nM |
| O=C(c1ccco1)N1CCN(C(=O)C2CCN(S(=O)(=O)Cc3ccccc3)CC2)CC1 | inconclusive: 1.3 nM |
| O=S(=O)(c1ccc(OCC(O)CN2CCC(Cc3ccccc3)CC2)cc1)N1CCOCC1 (centres undefined) | inconclusive: 1.3 nM |
| COc1ccccc1N1CCN(C(=O)Cn2nnc(-c3ccncc3)n2)CC1 | inactive |
| CC(N)=NCCCC[C@H](N)C(=O)O | inconclusive: 1.3 nM |
| C=CCNS(=O)(=O)c1ncnc2nc[nH]c12 | inactive |
| CCCC12CN(C(=O)c3ccc(OC)cc3)CC(C)(CN(C(=O)c3ccc(OC)cc3)C1)C2=O | inconclusive: 1.1 nM |
| CCOC(=O)CCc1c(C)nc(SCCCn2c(=O)[nH]c3ccccc32)c(C#N)c1C | inconclusive: 1.4 nM |
| O=C(O)C1C2C=CC(C2)C1C(=O)N1CCOCC1 (centres undefined) | inconclusive: 2.8 nM |
| O=C(c1ccccc1)c1ccc(CN2C(=O)c3ccccc3C2=O)o1 | inconclusive: 2.1 nM |
| CC(C)C(C(=O)C=[N+]=[N-])N1C(=O)c2ccccc2C1=O (centres undefined) | inconclusive: 1.2 nM |
